Data reported in PMC12054373.

Assays:
bS21 [1] = biological target: T1, bS21 (UniProt Q9KD65); assay: filter binding; details: Filter binding: 20 mM Tris-HCl pH 7.5, 150 mM NaCl, 10 mM MgCl2, 1 mM TCEP, 5% glycerol, 0.001% SDS, ~2.5 nM RNA, 20°C, 15 min, residues 1-57, label: 5' 32P, probe letters rebuilt from the primers and the genome; for binding result: recombinant protein
T1 sequence (looked up): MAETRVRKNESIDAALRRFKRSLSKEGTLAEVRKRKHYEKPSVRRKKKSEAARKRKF

bS21 [2] = biological target: T1, bS21; assay: footprinting (in-line probing); details: recombinant protein, residues 1-57, label: 5' 32P, probe letters rebuilt from the primers and the genome

Sequence	binding result (bS21 [1]; 0.67 µM bS21, about same as WT)	binding result (bS21 [1]; 0.67 µM bS21)	other results
GGUGUCUUUUAGAAUAAGAGUGGUGCAGUAUUCUAGUCAAUCCUCCAUUCUUGAAGGCGGGGCUAAAAAUCCGCCAAAGGGCACAUCGAUGAAGCUCCUUGUGAUGGCUUGAGGCGCCCAGCCUUGGGUCAUUGCUGGGAGAAAAGGUAGUAGGGCGAUCCACAAAGGCAUGUGGGCGAUGACCCUCCUACUGUGGAGGCCUUUUUCUCUGCUGCUUAUGUAUGGACAUAGGGCAAGAGCAAAGGGUAUGAACCUGCGAAGGCAAGCUAGGGAGCUUGUCAGCAGCGUAGCCUGCCUUGAGUGGAGUAGAGGGGAUUAUGGGUUUUGAAGCAAUCCGCUGUCGGCCAACAGCCAUUGCCUCUCUAGUACCAUAUGAAAUCUGCUCUGCAAAAGAGGAUAAGAGAAUGGCAAGGGAUUGCCGAGGAAAACUCCUAGACUGUUCCAUGGGGACAUUUAAAGAGGAUUACAGUGUGGACUAAGUGGUAAUCCAGUCUGGCGUUUGGUGACAGCGCCAAGUUCAACAUAAAGGGAAACCGCCAGCGCGGCGACGCACUGGUGUUGAAUUGGGAAAUCCUACUGGACCUAAGCCACAGAGUUUACUCUUUAAAUGACCACUCUCAUACAUACGCAGUCGGAACG [OLE1-637]			Kd (bS21 [1]; 10 mM MgCl2, recombinant …): 670 nM
GGAUCGAUGAAGCUCCUUGUGAUGGCUUGAGGCGCCCAGCCUUGGGUCAUUGCUGGGAGAAAAGGUUGCUGCGCGAUCCACAAAGGCAUGUGGGCGAUGACGCAUCAACUG [OLE83-191 M4]			binding result (bS21 [1]; 0.67 µM bS21, low but detectable): binds more weakly; binding result (bS21 [2]; pattern changes with bS21): binds more weakly
GGAUCGAUGAAGCUCCUUGUGAUGGCUUGAGGCGCCCAGCCUUGGGUCAUUGCUGGGAGAAAAGGUAGUUGGGCGAUCCACAAAGGCAUGUGGGCGAUGACCCACCUACUG [OLE83-191 M1]	binds		
GGAUCGAUGAAGCUCCUUGUGAUGGCUUGAGGCGCCCAGCCUUGGGUCAUUGCUGGGAGAAAAGGUUGCUGGGCGAUCCACAAAGGCAUGUGGGCGAUGACCCAUCAACUG [OLE83-191 M3]	binds		
GGAUCGAUGAAGCUCCUUGUGAUGGCUUGAGGCGCCCAGCCUUGGGUCAUUGCUGGGAGAAAAGGUAGUACGGCGAUCCACAAAGGCAUGUGGGCGAUGACCGUCCUACUG [OLE83-191 M6]		binds more weakly	
GGAUCGAUGAAGCUCCUUGUGAUGGCUUGAGGCGCCCAGCCUUGGGUCAUUGCUGGGAGAAAAGGUUGUUGGGCGAUCCACAAAGGCAUGUGGGCGAUGACCCACCAACUG [OLE83-191 M2]	binds		
GGAUCGAUGAAGCUCCUUGUGAUGGCUUGAGGCGCCCAGCCUUGGGUCAUUGCUGGGAGAAAAGGUAGUAGCGCGAUCCACAAAGGCAUGUGGGCGAUGACGCUCCUACUG [OLE83-191 M5]		binds more weakly	
GGAUCGAUGAAGCUCCUUGUGAUGGCUUGAGGCGCCCAGCCUUGGGUCAUUGCUGGGAGAAAAGGUAGUACCGCGAUCCACAAAGGCAUGUGGGCGAUGACGGUCCUACUG [OLE83-191 M7]		no binding	binding result (bS21 [2]; 1 µM bS21, no pattern change): no binding

Negatives hold for the conditions tested. Where a protein sequence is shown, tags need not be part of it. The exact form of at least one protein or probe is not confirmed. The comparison behind a weaker result is the experiment's own reference, which may not be listed here.
